Assay results published in patent US7202244B2, “Chk-1 inhibitors” (Millennium Pharmaceuticals, Inc., priority 2002, dated 2007).
At least one structure is not confirmed: it was looked up by name or label, or the drawing left a doubt.

System: HT29, HCT116 or other cells
Experiment: WST assay: enhancement of cell killing by DNA damaging agents
Format: cell-based
Settings: shift of 1 = no shift
Description: HT29, HCT116 (5000 cells/well) or other cells were seeded (75 ul) to 96 well clear bottom plates at densities which provide linear growth curves for 72 hours. Cells were cultured under sterile conditions in appropriate media and for HT29 & HCT116 this media was McCoy's 5A containing 10% Fetal Bovine Serum (FBS). Following the initial seeding of cells they are incubated at 37° C., 5% CO2 from 17 to 24 hours at which time the appropriate DNA damaging agents (camptothecins, 5-fluorouracil and etoposid) are added at increasing concentrations to a point which is capable of causing at least 80% cell killing with in 48 hours. Final volume of all DNA damaging agent & compound additions was 25 ul and assays contained <1% DMSO final. At the same time as DNA Damaging agent addition, Chk1 inhibitor was added at fixed concentrations to each DNA damaging agent titration to observe enhancement of cell killing. In addition, toxicity of each Chk1 inhibitor alone was observed. […] Cell viability/cell killing under the conditions described above was determined by addition WST reagent (Roche) according to the manufacturer at 47 hours following DNA damage & Chk1 inhibitor addition and following a 3.5 hour or 2.5 hour incubation at 37 C, 5% CO2, OD450 was measured.

With Cc1cnc(NC(=O)Nc2cc(Cl)ccc2OCCCCN)cn1 [Example 33, 1-[2-(4-Amino-butoxy)-5-chloro-phenyl]-3-(5-methyl-pyrazin-2-yl)-urea] as the compound, how does the “Shift 1.25 μM” value (Chk1 inhibitor fixed at 1.25 μM with DNA damaging agent titration) read?
Its value is “toxic”.

What about the “Shift 2.5 μM” value (Chk1 inhibitor fixed at 2.5 μM with DNA damaging agent titration) of the same compound?
The value was “toxic”.
